PubChem BioAssay AID1259405 | NCATS – 2018
Shown is an unselected part of about 50,000 deposited reagents. Over the whole deposit, about 4,000 (8%) were called active. 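Mouse siRNA library applied to hamster cells; one well for each siRNA.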 Unmarked entries are inactive. The numbers tell different reagents against one gene apart. No sequences are given here.

Screen: 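Knock-downs that lift recombinant protein yield in hamster ovary cells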 (primary screen)
Cell system: Chinese hamster CHO-K1 ovary cells with stable secreted eGFP expression
Knock-down reagent: single siRNA against mouse genes, 0.8 pmol siRNA per well (2 µl of 400 nM stock)
Timing: 3 days
Measured: 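Percent of the per-plate non-targeting control median for intracellular GFP per well by laser scanning cytometry and for cell viability by ATP luminescence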
Scale: GFP, % of control: higher = more GFP per well, higher productivity; viability (ATP), % of control: higher = more viable cells (more ATP)
Rule for the call: 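a knock-down is called active if GFP reaches 120% or more of non-targeting control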

For Als2cl (ALS2 C-terminal like) #1, how do the results read?
GFP, % of control: 80.5; viability (ATP), % of control: 77.8

For Als2cl (ALS2 C-terminal like) #2, what was measured?
GFP, % of control: 73.4; viability (ATP), % of control: 89.8

What did the screen give for Als2cl (ALS2 C-terminal like) #3?
GFP, % of control: 76.8; viability (ATP), % of control: 86.2

With Tiaf2 (TGF-beta1-induced anti-apoptotic factor 2) #1, what does the deposit list?
GFP, % of control: 68.9; viability (ATP), % of control: 54.6

What did the screen give for Tiaf2 (TGF-beta1-induced anti-apoptotic factor 2) #2?
GFP, % of control: 112; viability (ATP), % of control: 111

What did the screen give for Tiaf2 (TGF-beta1-induced anti-apoptotic factor 2) #3?
GFP, % of control: 57.1; viability (ATP), % of control: 92.5

Which result is listed for Irx3 (Iroquois related homeobox 3) #1?
GFP, % of control: 66.8; viability (ATP), % of control: 77.9

For Irx3 (Iroquois related homeobox 3) #2, what was measured?
GFP, % of control: 76.7; viability (ATP), % of control: 75.1

For Irx3 (Iroquois related homeobox 3) #3, what was measured?
GFP, % of control: 108; viability (ATP), % of control: 106

With Cxcr4 (C-X-C motif chemokine receptor 4) #1, what does the deposit list?
GFP, % of control: 96.9; viability (ATP), % of control: 40.9

For Cxcr4 (C-X-C motif chemokine receptor 4) #2, how do the results read?
GFP, % of control: 73.9; viability (ATP), % of control: 67.2

With Cxcr4 (C-X-C motif chemokine receptor 4) #3, what does the deposit list?
GFP, % of control: 74.4; viability (ATP), % of control: 117

With Parp8 (poly (ADP-ribose) polymerase family, member 8) #1, what does the deposit list?
GFP, % of control: 70.6; viability (ATP), % of control: 93.9

What is on record for Parp8 (poly (ADP-ribose) polymerase family, member 8) #2?
GFP, % of control: 103; viability (ATP), % of control: 89.4

With Parp8 (poly (ADP-ribose) polymerase family, member 8) #3, what does the deposit list?
GFP, % of control: 120 (active); viability (ATP), % of control: 94.7

What is on record for Zbtb43 (zinc finger and BTB domain containing 43) #1?
GFP, % of control: 88.8; viability (ATP), % of control: 67

With Zbtb43 (zinc finger and BTB domain containing 43) #2, how do the results read?
GFP, % of control: 66.9; viability (ATP), % of control: 64.2

For Zbtb43 (zinc finger and BTB domain containing 43) #3, what does the deposit list?
GFP, % of control: 59.3; viability (ATP), % of control: 90.4

For Fhdc1 (FH2 domain containing 1) #1, what does the deposit list?
GFP, % of control: 69.2; viability (ATP), % of control: 84.2

What did the screen give for Fhdc1 (FH2 domain containing 1) #2?
GFP, % of control: 50.6; viability (ATP), % of control: 65.8

What did the screen give for Fhdc1 (FH2 domain containing 1) #3?
GFP, % of control: 105; viability (ATP), % of control: 76.1

For Syn3 (synapsin III) #1, what does the deposit list?
GFP, % of control: 82.2; viability (ATP), % of control: 70.9

For Syn3 (synapsin III) #2, how do the results read?
GFP, % of control: 78.5; viability (ATP), % of control: 77.4

Which result is listed for Tex21 (testis expressed gene 21) #1?
GFP, % of control: 65.5; viability (ATP), % of control: 75.7

How did the screen score Tex21 (testis expressed gene 21) #2?
GFP, % of control: 149 (active); viability (ATP), % of control: 143

With Tex21 (testis expressed gene 21) #3, what does the deposit list?
GFP, % of control: 120 (active); viability (ATP), % of control: 149

With E2f8 (E2F transcription factor 8) #1, how do the results read?
GFP, % of control: 101; viability (ATP), % of control: 117

How did the screen score E2f8 (E2F transcription factor 8) #2?
GFP, % of control: 69.4; viability (ATP), % of control: 106

For Ogt #1, how do the results read?
GFP, % of control: 48.9; viability (ATP), % of control: 58

Which result is listed for Ogt #2?
GFP, % of control: 43.9; viability (ATP), % of control: 73.8

What is on record for Ogt #3?
GFP, % of control: 51.7; viability (ATP), % of control: 56.7

With Or12j4 (olfactory receptor family 12 subfamily J member 4) #1, what does the deposit list?
GFP, % of control: 73.9; viability (ATP), % of control: 70.9

What did the screen give for Or12j4 (olfactory receptor family 12 subfamily J member 4) #2?
GFP, % of control: 88.3; viability (ATP), % of control: 93.6

Which result is listed for Or12j4 (olfactory receptor family 12 subfamily J member 4) #3?
GFP, % of control: 71.8; viability (ATP), % of control: 78.4

With Cap1 (cyclase associated actin cytoskeleton regulatory protein 1) #1, what was measured?
GFP, % of control: 83.1; viability (ATP), % of control: 83

How did the screen score Cap1 (cyclase associated actin cytoskeleton regulatory protein 1) #2?
GFP, % of control: 91; viability (ATP), % of control: 54

Which result is listed for Cap1 (cyclase associated actin cytoskeleton regulatory protein 1) #3?
GFP, % of control: 127 (active); viability (ATP), % of control: 143

What did the screen give for Bmper (BMP-binding endothelial regulator) #1?
GFP, % of control: 86.5; viability (ATP), % of control: 66.3

Which result is listed for Bmper (BMP-binding endothelial regulator) #2?
GFP, % of control: 69.2; viability (ATP), % of control: 73.2

For Bmper (BMP-binding endothelial regulator) #3, how do the results read?
GFP, % of control: 127 (active); viability (ATP), % of control: 126

Which result is listed for Muc4 (mucin 4) #1?
GFP, % of control: 104; viability (ATP), % of control: 78.3

Which result is listed for Muc4 (mucin 4) #2?
GFP, % of control: 80.2; viability (ATP), % of control: 88.1

What did the screen give for Muc4 (mucin 4) #3?
GFP, % of control: 61.4; viability (ATP), % of control: 61.7

For Muc4 (mucin 4) #4, what does the deposit list?
GFP, % of control: 89.8; viability (ATP), % of control: 67.5

For Muc4 (mucin 4) #5, what does the deposit list?
GFP, % of control: 90.9; viability (ATP), % of control: 85.1

With Muc4 (mucin 4) #6, what was measured?
GFP, % of control: 57.1; viability (ATP), % of control: 101

With Eif2d (eukaryotic translation initiation factor 2D) #1, how do the results read?
GFP, % of control: 63.5; viability (ATP), % of control: 68.2

For Eif2d (eukaryotic translation initiation factor 2D) #2, how do the results read?
GFP, % of control: 81.3; viability (ATP), % of control: 66.2

For Eif2d (eukaryotic translation initiation factor 2D) #3, what does the deposit list?
GFP, % of control: 72.5; viability (ATP), % of control: 46.8

Which result is listed for Hoxd1 (homeobox D1) #1?
GFP, % of control: 93.9; viability (ATP), % of control: 99.8

For Hoxd1 (homeobox D1) #2, how do the results read?
GFP, % of control: 82.5; viability (ATP), % of control: 44.5

With Hoxd1 (homeobox D1) #3, what was measured?
GFP, % of control: 63.5; viability (ATP), % of control: 52.6
